In the supplement of paper PMC12823440, “Inhibitors supercharge kinase turnover through native proteolytic circuits” (Nature, 2025):
Counter-ions that a name gives are not always drawn. This is one part of the list. The calls rarely recur for the same compound in another form.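 Kinases were expressed as nanoluciferase fusions in K562 cells and luminescence was read every 4 h between 2 and 18 h as percent of control, DMSO set to 100% and a positive control to 0%. A time point counts as decreased when the signal drops significantly (2 sigma). The hit call is the authors' own, does not follow from the count of time points alone, and its rule is not shown.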

By UniProt entry, the sequences of proteins in these tests, tags left out.
UniProt P07333, whole entry: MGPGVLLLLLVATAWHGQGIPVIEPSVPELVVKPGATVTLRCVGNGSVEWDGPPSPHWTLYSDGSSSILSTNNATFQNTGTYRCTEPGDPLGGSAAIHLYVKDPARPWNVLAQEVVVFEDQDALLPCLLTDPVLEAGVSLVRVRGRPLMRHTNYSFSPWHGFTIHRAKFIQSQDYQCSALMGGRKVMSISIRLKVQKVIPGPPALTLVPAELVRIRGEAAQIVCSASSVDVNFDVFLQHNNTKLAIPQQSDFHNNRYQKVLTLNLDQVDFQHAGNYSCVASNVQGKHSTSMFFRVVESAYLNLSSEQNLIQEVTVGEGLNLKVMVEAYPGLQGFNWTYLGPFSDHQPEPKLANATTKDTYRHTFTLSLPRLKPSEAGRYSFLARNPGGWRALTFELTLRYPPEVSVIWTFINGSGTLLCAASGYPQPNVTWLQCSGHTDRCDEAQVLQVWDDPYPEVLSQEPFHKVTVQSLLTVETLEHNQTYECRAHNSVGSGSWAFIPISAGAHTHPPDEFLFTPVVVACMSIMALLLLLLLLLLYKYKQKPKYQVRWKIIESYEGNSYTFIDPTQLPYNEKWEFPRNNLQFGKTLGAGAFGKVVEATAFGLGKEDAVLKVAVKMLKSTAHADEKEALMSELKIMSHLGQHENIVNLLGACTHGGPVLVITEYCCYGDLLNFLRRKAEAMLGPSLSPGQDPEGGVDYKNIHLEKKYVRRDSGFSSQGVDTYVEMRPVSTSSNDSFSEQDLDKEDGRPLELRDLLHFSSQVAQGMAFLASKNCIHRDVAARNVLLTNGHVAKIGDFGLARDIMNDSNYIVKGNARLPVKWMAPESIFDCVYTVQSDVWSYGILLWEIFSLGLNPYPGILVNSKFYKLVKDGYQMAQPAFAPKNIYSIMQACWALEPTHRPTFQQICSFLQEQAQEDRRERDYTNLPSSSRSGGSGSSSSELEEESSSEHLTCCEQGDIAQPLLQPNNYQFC

Target: CSF1R (UniProt P07333)
Test: number of time points (of 5) at which kinase-Nluc abundance scored as decreased, DMSO-normalised (count); higher = more persistent destabilization
Conditions: K562; 2-18 h

| Compound | number of time points |
| --- | --- |
| N#Cc1ccc2[nH]c(O)c(-c3ccc(CN4CCOCC4)cn3)c2c1 (10 µM) | 0 |
| CCN(CC)CCCCNc1ncc2cc(-c3cc(OC)cc(OC)c3)c(NC(=O)NC(C)(C)C)nc2n1 (10 µM) | 0 |
| Oc1ccc(-c2nc(-c3ccc(F)cc3)c(-c3ccncc3)[nH]2)cc1 (2.5 µM) | 0 |
| O=C1NCCc2[nH]c(-c3ccnc(-c4cnc5ccccc5c4)c3)cc21 (10 µM) | 0 |
| Cc1cc(N2CCOCC2)cc2[nH]c(-c3c(NC[C@@H](O)c4cccc(Cl)c4)cc[nH]c3=O)nc12 (10 µM) | 0 |
| COc1cc(OC)cc(-c2cc3cnc(N)nc3nc2NC(=O)NC(C)(C)C)c1 (10 µM) | 0 |
| Cc1ccc(NC(=O)Nc2nnc(Sc3ncnc4cc(OCCCN5CCOCC5)ccc34)s2)cc1 (10 µM) | 0 |
| N#C/C(=C\c1ccc(O)c(O)c1)C(=O)NCCCc1ccccc1 (10 µM) | 0 |
| Cc1cccc([C@@H](CO)NC(=O)[C@@H](C)N2Cc3ccc(-c4nc(NC5CCOCC5)ncc4Cl)cc3C2=O)c1 [ERK1/2 inhibitor 1] (10 µM) | 0 |
| CCOc1ccn(-c2ccc(F)cc2)c(=O)c1C(=O)Nc1ccc(Oc2ccnc(N)c2Cl)c(F)c1 (10 µM) | 1 |
| O=c1cc(N2CCOCC2)oc2c(-c3ccccc3)cccc12 (10 µM) | 0 |
| O=c1oc2c(O)c(O)cc3c(=O)oc4c(O)c(O)cc1c4c23 [Ellagic acid] (10 µM) | 0 |
| C=CC(=O)Nc1ccc2ncnc(Nc3cccc(Br)c3)c2c1 (10 µM) | 0 |
| Cc1c(Cn2c(C)nc3c(C(=O)O)cc(N4CCOCC4)cc32)cccc1C(F)(F)F (10 µM) | 0 |
| Cc1c[nH]c2nccc(Oc3c(F)cc(Nc4cc(Cl)nc(N)n4)cc3F)c12 (10 µM) | 0 |
| CC(C)CC(=O)Nc1n[nH]c2c1CN(C(=O)C1CCN(C)CC1)C2(C)C (2.5 µM) | 0 |
| CCN(CCO)CCCOc1ccc2c(Nc3cc(CC(=O)Nc4cccc(F)c4)[nH]n3)ncnc2c1 [Barasertib-HQPA] (10 µM) | 0 |
| N#C/C(=C\c1ccc(O)c(O)c1)C(=O)NCc1ccccc1 (10 µM) | 0 |
| COc1nccc(-c2c(-c3ccc(F)cc3)ncn2C2CCC(O)CC2)n1 (centres undefined) (10 µM) | 0 |
| O=c1c(-c2ccc(O)cc2)coc2cc(O)cc(O)c12 [Genistein] (10 µM) | 0 |

| Compound | number of time points |
| --- | --- |
| CCOc1cc2ncc(C#N)c(Nc3ccc(OCc4ccccn4)c(Cl)c3)c2cc1NC(=O)/C=C/CN(C)C [Neratinib] (10 µM) | 0 |
| CN1CCC(Nc2ncc3ncnc(Nc4ccc(F)c(Cl)c4)c3n2)CC1 [Falnidamol] (10 µM) | 0 |
| O=c1c(O)c(-c2ccc(O)c(O)c2)oc2cc(O)cc(O)c12 [Quercetin (dihydrate)] (10 µM) | 0 |
| COc1ccc(C=C(C#N)c2cccnc2)cc1OC (10 µM) | 0 |
| Nc1ncnc2c1c(-c1ccc(Oc3ccccc3)cc1)cn2C1CCCC1 (2.5 µM) | 0 |
| COc1cc2nc(C)nc(N[C@H](C)c3cc(N)cc(C(F)(F)F)c3)c2cc1O[C@H]1CCOC1 (10 µM) | 0 |
| N#CC(=Cc1ccc(O)c(O)c1)C(=O)NCc1ccccc1 (mixture of isomers) (10 µM) | 0 |
| O=C1Cc2c([nH]c3ccc(Br)cc23)-c2ncccc2N1 [1-Azakenpaullone] (10 µM) | 0 |
| COc1cc2c(Nc3ccc(Br)cc3F)ncnc2cc1OCCn1ccnn1 (10 µM) | 0 |
| CNc1nc(-c2ccc3c(N)n[nH]c3c2)cc(N2C[C@@H](C(=O)NC3CCCCC3)CC[C@H]2C)n1 (10 µM) | 2 |
| Cc1cc(F)c(C(=O)Nc2cccc(-c3nncn3C(C)C)n2)cc1-n1cnc(C2CC2)c1 [Selonsertib] (10 µM) | 0 |
| COc1cc(C)c(Sc2cnc(NC(=O)c3ccc(CNC(C)C(C)(C)C)cc3)s2)cc1C(=O)N1CCN(C(C)=O)CC1 (centres undefined) (2.5 µM) | 0 |
| CCN(CC)CCCCNc1ncc2cc(-c3c(Cl)cccc3Cl)c(NC(=O)NC(C)(C)C)nc2n1 (2.5 µM) | 0 |
| COc1cc(C=C(C#N)C(N)=O)cc(CSc2nc3ccccc3s2)c1O (10 µM) | 0 |
| C[C@]1(O)C[C@@H](c2nc(-c3ccc4ccc(-c5ccccc5)nc4c3)c3c(N)nccn32)C1 [Linsitinib] (2.5 µM) | 0 |
| CCN1CCN(c2ccc(Nc3cc(N(C)C(=O)Nc4c(Cl)c(OC)cc(OC)c4Cl)ncn3)cc2)CC1 [Infigratinib] (10 µM) | 0 |
| COc1c(CC=C(C)C)c(O)cc2oc(=O)c(-c3ccc(O)cc3O)cc12 [Glycycoumarin] (10 µM) | 0 |
| Cc1cc(C(=O)Nc2cccc(C(=O)Nc3cccc(C(F)(F)F)c3)c2)on1 (10 µM) | 0 |
| Cn1c(=O)c(Oc2ccc(F)cc2F)cc2cnc(NC3CCOCC3)nc21 [R1487 (Hydrochloride)] (10 µM) | 0 |
